PubChem BioAssay AID1159592 | NIAID – 2016
The deposit covers 756 reagents; shown is a random part of them. Of all reagents, 147 (19%) are marked active. 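Active covers both loss and gain of p65 entry; negative z means weaker NF-kB activation, positive means more nuclear p65.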 Entries without a mark were called inactive. Reagents against one gene are numbered here. Not stated in the record: the amount of reagent.

- Assay: 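Toll-like receptor pathway genes that R848 needs to send NF-kB into the nucleus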
- Cell system: RAW264.7 macrophages from mouse bearing reporters for p65 (GFP) and the Tnf promoter (mCherry)
- Reagent: single siRNA against mouse genes
- Timing: 48 to 72 hours after siRNA transfection
- Challenge: R848 TLR ligand for 40 minutes before fixation; dose not given
- Detection: 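Nuclear over cytoplasmic GFP-p65 signal imaged 40 minutes after R848, plate-normalised by median and MAD, given as robust z versus negative controls, mean of replicates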
- Reading the numbers: NF-kB translocation z-score: higher = more p65 moved into the nucleus than in negative-control wells
- Active means: 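a call of active needs an averaged z beyond 1.5 in either direction; tiers of absolute z at 1, 1.5, 2 and 2.5 are also set by the depositor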
- Meaning of the calls: active = strong change, either direction; inactive = little change

Pik3r3 (phosphoinositide-3-kinase regulatory subunit 3) #1 — NF-kB translocation z-score, replicate mean = 1.56 (active)
Pik3r3 (phosphoinositide-3-kinase regulatory subunit 3) #2 — NF-kB translocation z-score, replicate mean = 1.83 (active)
Pik3r3 (phosphoinositide-3-kinase regulatory subunit 3) #3 — NF-kB translocation z-score, replicate mean = -1.07
Pik3r3 (phosphoinositide-3-kinase regulatory subunit 3) #4 — NF-kB translocation z-score, replicate mean = -0.112
Pik3r3 (phosphoinositide-3-kinase regulatory subunit 3) #5 — NF-kB translocation z-score, replicate mean = -1.69 (active)
Pik3r3 (phosphoinositide-3-kinase regulatory subunit 3) #6 — NF-kB translocation z-score, replicate mean = -1.17
Pik3cb #1 — NF-kB translocation z-score, replicate mean = -0.341
Pik3cb #2 — NF-kB translocation z-score, replicate mean = -1.99 (active)
Pik3cb #3 — NF-kB translocation z-score, replicate mean = -0.38
Pik3cb #4 — NF-kB translocation z-score, replicate mean = -0.595
Pik3cb #5 — NF-kB translocation z-score, replicate mean = -3.71 (active)
Pik3cb #6 — NF-kB translocation z-score, replicate mean = 0.121
Il12a (interleukin 12a) #1 — NF-kB translocation z-score, replicate mean = -0.477
Il12a (interleukin 12a) #2 — NF-kB translocation z-score, replicate mean = -0.143
Il12a (interleukin 12a) #3 — NF-kB translocation z-score, replicate mean = -0.789
Il12a (interleukin 12a) #4 — NF-kB translocation z-score, replicate mean = -0.71
Il12a (interleukin 12a) #5 — NF-kB translocation z-score, replicate mean = -1.09
Il12a (interleukin 12a) #6 — NF-kB translocation z-score, replicate mean = 0.0711
Cxcl9 (C-X-C motif chemokine ligand 9) #1 — NF-kB translocation z-score, replicate mean = -0.467
Cxcl9 (C-X-C motif chemokine ligand 9) #2 — NF-kB translocation z-score, replicate mean = -1.77 (active)
Cxcl9 (C-X-C motif chemokine ligand 9) #3 — NF-kB translocation z-score, replicate mean = -0.624
Cxcl9 (C-X-C motif chemokine ligand 9) #4 — NF-kB translocation z-score, replicate mean = 0.225
Cxcl9 (C-X-C motif chemokine ligand 9) #5 — NF-kB translocation z-score, replicate mean = -0.209
Cxcl9 (C-X-C motif chemokine ligand 9) #6 — NF-kB translocation z-score, replicate mean = -0.0338

Records listed so far with an active call:
Pik3r3 (phosphoinositide-3-kinase regulatory subunit 3) #1 — NF-kB translocation z-score, replicate mean = 1.56 (active)
Pik3r3 (phosphoinositide-3-kinase regulatory subunit 3) #2 — NF-kB translocation z-score, replicate mean = 1.83 (active)
Pik3r3 (phosphoinositide-3-kinase regulatory subunit 3) #5 — NF-kB translocation z-score, replicate mean = -1.69 (active)
Pik3cb #2 — NF-kB translocation z-score, replicate mean = -1.99 (active)
Pik3cb #5 — NF-kB translocation z-score, replicate mean = -3.71 (active)
Cxcl9 (C-X-C motif chemokine ligand 9) #2 — NF-kB translocation z-score, replicate mean = -1.77 (active)

Next entries follow.
Ikbkb (inhibitor of kappaB kinase beta) #1 — NF-kB translocation z-score, replicate mean = 0.985
Ikbkb (inhibitor of kappaB kinase beta) #2 — NF-kB translocation z-score, replicate mean = -1.21
Ikbkb (inhibitor of kappaB kinase beta) #3 — NF-kB translocation z-score, replicate mean = -2.21 (active)
Ikbkb (inhibitor of kappaB kinase beta) #4 — NF-kB translocation z-score, replicate mean = -0.785
Ikbkb (inhibitor of kappaB kinase beta) #5 — NF-kB translocation z-score, replicate mean = -2.05 (active)
Ikbkb (inhibitor of kappaB kinase beta) #6 — NF-kB translocation z-score, replicate mean = -2.03 (active)
Fadd (Fas associated via death domain) #1 — NF-kB translocation z-score, replicate mean = -1.05
Fadd (Fas associated via death domain) #2 — NF-kB translocation z-score, replicate mean = -0.704
Fadd (Fas associated via death domain) #3 — NF-kB translocation z-score, replicate mean = -1.47
Fadd (Fas associated via death domain) #4 — NF-kB translocation z-score, replicate mean = -0.61
Fadd (Fas associated via death domain) #5 — NF-kB translocation z-score, replicate mean = -0.476
Fadd (Fas associated via death domain) #6 — NF-kB translocation z-score, replicate mean = 0.147
